According to the supplement of paper PMC3334620:
Over roughly 33,000 sequences, “E-score (-0.5 to 0.5)” has its median near -0.0014; the highest 2% begin near 0.25. The list shows a part of the results.

target: T1, Cad1 (UniProt P24813); assay: PBM E-score (8-mer binding enrichment) (E-score (-0.5 to 0.5)); higher = stronger / more preferred TF binding; details: protein concentration: 100 nM; construct: GST-full length
T1 sequence: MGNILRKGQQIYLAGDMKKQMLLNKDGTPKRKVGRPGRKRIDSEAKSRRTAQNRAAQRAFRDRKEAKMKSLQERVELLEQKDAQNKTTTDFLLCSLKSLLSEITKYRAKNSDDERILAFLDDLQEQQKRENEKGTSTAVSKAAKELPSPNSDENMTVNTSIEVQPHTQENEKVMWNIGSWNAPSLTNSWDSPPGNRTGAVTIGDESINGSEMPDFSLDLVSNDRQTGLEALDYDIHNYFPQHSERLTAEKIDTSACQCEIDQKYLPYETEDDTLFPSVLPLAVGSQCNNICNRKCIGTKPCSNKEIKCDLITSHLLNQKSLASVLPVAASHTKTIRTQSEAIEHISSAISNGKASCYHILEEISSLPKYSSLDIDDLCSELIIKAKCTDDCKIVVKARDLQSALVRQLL
Protocol: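 Universal 'all 10-mer' protein binding microarrays (Agilent AMADID 015681) probed with GST-tagged S. cerevisiae TFs (full-length or DBD) made by in vitro transcription/translation (PURExpress), about 100-200 nM. Bound TF was detected with fluorescent anti-GST. Each ungapped 8-mer (which stands for itself and its reverse complement) is scored by the PBM enrichment score (E-score), a modified Wilcoxon-Mann-Whitney statistic from -0.5 to +0.5, computed with the Universal PBM Analysis Suite. Scale: above 0.35 generally sequence-specific binding.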

Sequence | PBM E-score
GTCATAAC | 0.0715
CATCACTA | 0.0442
AAAAGTGC | -0.0275
GAATCATA | 0.0335
CTAGACGC | -0.138
CTAAAGAG | -0.136
AACCCGCG | 0.154
CATAGCAC | -0.0299
AACATGTG | 0.207
CGGTGACA | -0.0436
CCCCGACG | -0.0231
CTAAACAG | -0.00653
CCGTACCA | 0.134
ATTACTTA | 0.237
CTTATTTC | 0.304
CGTTACCA | 0.0326
CGCCTTAC | -0.024
GAAAAGAC | 0.114
TCTGCTCA | 0.0798
CAAAAGGG | -0.144
GAAAAAAA | 0.215
CCGGTTTC | 0.0734
AGGCCCTG | -0.124
CTAAGACA | 0.0189
GACAAATC | 0.306

Sequence | PBM E-score
GACATTCA | 0.0718
AGCAGTCC | -0.195
CGCGCTGA | 0.219
ATAGATAC | 0.0239
CCGTATGA | 0.0131
GTACACGA | 0.0697
TTACTGAA | 0.209
AAGCTCTA | 0.0386
ATCACGGG | -0.16
CGACGGCA | -0.158
GGTAATTA | 0.186
GACATGAC | -0.175
CCGAATTC | 0.181
GGAAGTAA | -6e-05
CGCTGGAA | -0.0381
GCGTGACA | 0.1
CTGCTATA | 0.048
CCTAAGCA | 0.0423
CGGTTTTA | -0.00607
ACCATGTC | -0.056
CATTCCCC | -0.0209
CAATCGAG | -0.0756
GCGCTGCC | -0.124
GAAATGCA | 0.0836
CCCAATTC | 0.211

Sequence | PBM E-score
AGTAAGGA | -0.0549
TAACCCAA | 0.00706
CGTCGAGC | 0.0029
TCATGGCA | 0.0627
GGCAGGGA | -0.0316
ACGCGACC | 0.0178
CAATCGCG | 0.101
TATGCGCA | 0.0953
AAGGTAAG | -0.104
GTGACTTA | 0.1
ACGCCTGA | 0.173
CATTTGGC | 0.0605
CGCAAGCC | 0.0392
ACTTTCCT | -0.143
GACGGCAA | 0.153
ATGACTTC | 0.00264
GACCGAAC | -0.00847
ATGAGACA | 0.0645
GCATCGCC | -0.0897
AGTGCGTG | -0.00204
ACACGTCG | -0.121
GAGTGGCC | -0.088
AATGGTTC | 0.149
GGCAAAGA | 0.0959
CCTGCGTA | -0.165

Sequence | PBM E-score
AACTGTTA | 0.0596
AAGGTTAT | -0.111
AACCGAGT | -0.0245
CAAAGCTG | 0.13
ATATGAGC | 0.123
GGCATACC | -0.103
CAATAAGC | 0.0179
AGTAGTAC | 0.235
CACTACTA | 0.0856
ATTCGCAA | 0.156
AAAGGCAA | -0.0149
CACCCATG | -0.0677
GTATCCCA | -0.128
GGGGTCTA | -0.0356
GACCTTGC | -0.172
GCATAGCA | 0.107
AGGTGCAC | 0.0804
AAGTTTAT | 0.178
AATATAGA | 0.168
AAACTCCT | -0.311
ACAGAAAA | 0.281
CCGCAAGA | 0.147
AGATCATA | 0.162
CCTCATCA | 0.019
TCGATTCA | 0.0497

Sequence | PBM E-score
CCCACGCC | -0.271
ATACGAAT | 0.107
GTTACAGA | -0.237
ATCTCTCG | -0.0747
GCAGTTAC | 0.128
CATTATAG | -0.0283
GACGCCTC | -0.0937
GGGAATTA | 0.173
CACTCTAA | 0.019
ACCGTTAC | 0.0129
AAGAAGGC | -0.191
CGTAGCTC | 0.109
CATTTAAG | -0.0887
GTAAAGAA | 0.135
CGAATGAC | 0.169
GTTTTGGA | -0.025
CTCGACAA | -0.0434
CAATATGG | -0.045
AACCTACG | -0.119
ATCGATAA | 0.162
ACCCGTGG | -0.231
CGGGCAAA | -0.0196
AGGCTTTA | -0.188
CAGAGCCA | -0.344
ATCCTTAC | 0.101

Sequence | PBM E-score
ATAGATGA | -0.0472
ACACGGAA | 0.0916
GGTTTCCA | -0.155
CGTTAGCA | 0.083
AGCATCGG | 0.0523
AGTTAGTA | 0.0725
ACTGCTAC | -0.026
AGCCGGCT | -0.0559
AGGATCTG | -0.145
CTTAGCCC | -0.144
GACGAAAA | 0.297
CTTAGCAC | 0.0502
GCTATAAA | -0.167
GTTGTTAA | 0.259
GCTAAGAA | -0.119
ACCATACA | -0.129
CGTAAGAG | 0.0766
ACGTACCG | 0.00529
CGTTCGTA | 0.143
GAATGATC | -0.0987
AGGTACCT | -0.0887
CCTGAATC | -0.0989
TATGGAGA | -0.0855
CGCGACCG | 0.0372
GAGAGCGC | -0.0566

Sequence | PBM E-score
AAGCTTTC | 0.236
CAAGCCGG | 0.172
TCGACTCA | 0.152
ACGCCTAT | -0.161
AAGTTTCT | 0.0467
ATCCGTCA | -0.0299
TCAGCAAA | 0.215
ATTTCCTA | 0.12
ACGGGCGG | -0.186
AAAAGTAC | 0.0242
GGTTAGTA | 0.219
ATATACAG | 0.163
ATGTTACA | 0.163
CCAGATTA | 0.0456
ACTAGTTC | 0.0748
ACCCCTTG | -0.202
CAGCTTGC | 0.021
GCGAACGC | -0.136
TAAGTTCA | 0.0639
CACTGTTC | -0.0722
CTAGCAGC | -0.00538
ATCTGCAG | 0.101

An excerpt of these results, as labelled records:
ACGGGCGG
  PBM E-score = -0.186
AAAAGTAC
  PBM E-score = 0.0242
GGTTAGTA
  PBM E-score = 0.219
ATATACAG
  PBM E-score = 0.163
